Source: article PMC12061305
No constants are given. Whether binding was seen depends on the method and setting. Binding seen in cells or lysates may run through a third protein. Here binding means that the protein was enriched with, or labelled near, the bait; the list need not be complete.

The chains behind the UniProt entries cited, without tags or fusion partners.
UniProt Q8VEK3: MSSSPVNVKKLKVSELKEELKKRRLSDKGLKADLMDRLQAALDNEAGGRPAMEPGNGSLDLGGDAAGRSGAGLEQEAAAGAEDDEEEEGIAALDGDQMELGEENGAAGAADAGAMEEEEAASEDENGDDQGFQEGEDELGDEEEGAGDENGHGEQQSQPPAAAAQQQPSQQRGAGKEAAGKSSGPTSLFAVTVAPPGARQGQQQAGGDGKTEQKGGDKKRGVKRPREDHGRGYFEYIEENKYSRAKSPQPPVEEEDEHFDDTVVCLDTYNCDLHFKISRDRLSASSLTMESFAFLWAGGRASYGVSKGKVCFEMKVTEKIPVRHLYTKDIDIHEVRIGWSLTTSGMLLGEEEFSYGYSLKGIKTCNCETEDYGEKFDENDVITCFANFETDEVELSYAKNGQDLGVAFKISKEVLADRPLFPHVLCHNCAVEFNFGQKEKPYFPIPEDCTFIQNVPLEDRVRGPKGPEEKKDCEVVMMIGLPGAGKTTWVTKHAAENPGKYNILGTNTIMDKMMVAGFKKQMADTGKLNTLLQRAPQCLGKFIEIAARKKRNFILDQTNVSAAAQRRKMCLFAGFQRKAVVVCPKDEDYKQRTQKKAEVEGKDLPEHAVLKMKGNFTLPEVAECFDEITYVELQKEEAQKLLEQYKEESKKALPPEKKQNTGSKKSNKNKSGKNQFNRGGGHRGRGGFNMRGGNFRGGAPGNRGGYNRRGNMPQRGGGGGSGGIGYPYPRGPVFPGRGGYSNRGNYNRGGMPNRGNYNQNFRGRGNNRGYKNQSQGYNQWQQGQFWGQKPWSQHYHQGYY

B1: Hnrnpdl (protein, UniProt Q9Z130 1-301)
chain: MEDMNEYSNIEEFAEGSKINASKNQQDDGKMFIGGLSWDTSKKDLTEYLSRFGEVVDCTIKTDPVTGRSRGFGFVLFKDAASVDKVLELKEHKLDGKLIDPKRAKALKGKEPPKKVFVGGLSPDTSEEQIKEYFGAFGEIENIELPMDTKTNERRGFCFITYTDEEPVKKLLESRYHQIGSGKCEIKVAQPKEVYRQQQQQQKGGRGAAAGGRGGARGRGRGQGQNWNQGFNNYYDQGYGNYNSAYGGDQNYSGYGGYDYTGYNYGNYGYGQGYADYSGQQSTYGKASRGGGNHQNNYQPY
B2: Nono (protein, UniProt Q99K48 1-473)
chain: MQSNKAFNLEKQNHTPRKHHQHHHQQHHQQQQQQQQQQPPPPIPANGQQASSQNEGLTIDLKNFRKPGEKTFTQRSRLFVGNLPPDITEEEMRKLFEKYGKAGEVFIHKDKGFGFIRLETRTLAEIAKVELDNMPLRGKQLRVRFACHSASLTVRNLPQYVSNELLEEAFSVFGQVERAVVIVDDRGRPSGKGIVEFSGKPAARKALDRCSEGSFLLTTFPRPVTVEPMDQLDDEEGLPEKLVIKNQQFHKEREQPPRFAQPGSFEYEYAMRWKALIEMEKQQQDQVDRNIKEAREKLEMEMEAARHEHQVMLMRQDLMRRQEELRRMEELHNQEVQKRKQLELRQEEERRRREEEMRRQQEEMMRRQQEGFKGTFPDAREQEIRMGQMAMGGAMGINNRGAMPPAPVPPGTPAPPGPATMMPDGTLGLTPPTTERFGQAATMEGIGAIGGTPPAFNRPAPGAEFAPNKRRRY
B3: Hnrnpr (protein, UniProt Q8VHM5 1-632)
chain: MANQVNGNAVQLKEEEEPMDTSSVTHTEHYKTLIEAGLPQKVAERLDEIFQTGLVAYVDLDERAIDALREFNEEGALSVLQQFKESDLSHVQNKSAFLCGVMKTYRQREKQGSKVQESTKGPDEAKIKALLERTGYTLDVTTGQRKYGGPPPDSVYSGVQPGIGTEVFVGKIPRDLYEDELVPLFEKAGPIWDLRLMMDPLSGQNRGYAFITFCGKEAAQEAVKLCDSYEIRPGKHLGVCISVANNRLFVGSIPKNKTKENILEEFSKVTEGLVDVILYHQPDDKKKNRGFCFLEYEDHKSAAQARRRLMSGKVKVWGNVVTVEWADPVEEPDPEVMAKVKVLFVRNLATTVTEEILEKSFSEFGKLERVKKLKDYAFVHFEDRGAAVKAMDEMNGKEIEGEEIEIVLAKPPDKKRKERQAARQASRSTAYEDYYYHPPPRMPPPMRGRGRGGRGGYGYPPDYYGYEDYYDDYYGYDYHDYRGGYEDPYYGYDDGYAVRGRGGGRGGRGAPPPPRGRGAPPPRGRAGYSQRGAPLGPPRGSRGGRGGPAQQQRGRGSRGARGNRGGNVGGKRKADGYNQPDSKRRQTNNQQNWGSQPIAQQPLQQGGDYSGNYGYNNDNQEFYQDTYGQQWK

target: T1, Niban2 (niban apoptosis regulator 2), immunoprecipitated for mass spectrometry (UniProt Q8R1F1); assay: affinity purification with mass spectrometry; Niban2 immunoprecipitated from cell lysate, IgG group as control; co-precipitated proteins identified by mass spectrometry; cells not given
T1 sequence: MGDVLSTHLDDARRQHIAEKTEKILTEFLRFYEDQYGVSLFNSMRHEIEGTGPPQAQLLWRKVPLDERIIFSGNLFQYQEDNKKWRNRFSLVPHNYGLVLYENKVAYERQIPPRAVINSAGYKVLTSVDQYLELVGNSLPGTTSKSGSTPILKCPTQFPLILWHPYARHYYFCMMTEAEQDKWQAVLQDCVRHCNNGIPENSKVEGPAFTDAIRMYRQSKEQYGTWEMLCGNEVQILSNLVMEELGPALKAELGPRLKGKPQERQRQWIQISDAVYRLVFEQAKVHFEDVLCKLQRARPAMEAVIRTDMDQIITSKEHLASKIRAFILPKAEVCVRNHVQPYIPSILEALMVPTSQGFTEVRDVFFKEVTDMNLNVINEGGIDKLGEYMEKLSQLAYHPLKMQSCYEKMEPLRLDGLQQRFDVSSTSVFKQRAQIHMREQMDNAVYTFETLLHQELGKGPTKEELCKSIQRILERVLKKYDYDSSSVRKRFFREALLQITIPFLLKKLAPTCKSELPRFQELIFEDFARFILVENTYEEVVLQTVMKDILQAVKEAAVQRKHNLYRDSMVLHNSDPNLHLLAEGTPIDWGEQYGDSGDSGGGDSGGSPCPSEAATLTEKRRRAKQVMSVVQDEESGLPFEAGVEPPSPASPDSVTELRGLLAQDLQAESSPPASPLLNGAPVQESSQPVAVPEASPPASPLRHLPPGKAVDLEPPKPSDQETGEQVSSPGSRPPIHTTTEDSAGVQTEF

binding, binds:
Hnrnpk (from UniProt P61979 1-463), Hnrnpu (found with immunoprecipitated Niban2 by mass spectrometry) (from UniProt Q8VEK3 1-800), B1, B2, B3
